Publication PMC9596381
Results are given in words; binding and its absence hold for the method and conditions named. Some entries that bind do so weakly or less than the wild type. Tags and fused reporters may be left off the sequences shown. Blank lines part the entries; values can stand above or below the binder they belong to.

By UniProt entry, the sequences of proteins in these tests, tags left out. Residues count along the entry.
UniProt Q6UXZ4, residues 33-379: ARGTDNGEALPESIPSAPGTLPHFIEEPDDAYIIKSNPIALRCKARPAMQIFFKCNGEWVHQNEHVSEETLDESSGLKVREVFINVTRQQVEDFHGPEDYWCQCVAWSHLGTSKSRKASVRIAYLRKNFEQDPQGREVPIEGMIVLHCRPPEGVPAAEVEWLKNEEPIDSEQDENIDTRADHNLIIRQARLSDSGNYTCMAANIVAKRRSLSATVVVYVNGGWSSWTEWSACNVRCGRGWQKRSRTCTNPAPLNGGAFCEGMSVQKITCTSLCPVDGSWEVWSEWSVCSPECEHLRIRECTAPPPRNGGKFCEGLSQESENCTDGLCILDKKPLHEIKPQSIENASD

Molecular target: human Unc5D (residues 33-379) alkaline phosphatase fusion (Unc5D-AP) (human) (UniProt Q6UXZ4)
Test: ELISA; Unc5D-AP conditioned medium captured by anti-AP in 96-well plates as bait; culture medium of 95 ecto-Fc prey proteins added with anti-human IgG1-HRP; 4 h at room temperature; absorbance at 650 nm; in duplicate

binding: binds
B1: FLRT3 Fc-tagged ectodomain prey (Fc fusion, UniProt Q9NZU0 29-528)
chain: KSCPSVCRCDAGFIYCNDRFLTSIPTGIPEDATTLYLQNNQINNAGIPSDLKNLLKVERIYLYHNSLDEFPTNLPKYVKELHLQENNIRTITYDSLSKIPYLEELHLDDNSVSAVSIEEGAFRDSNYLRLLFLSRNHLSTIPWGLPRTIEELRLDDNRISTISSPSLQGLTSLKRLVLDGNLLNNHGLGDKVFFNLVNLTELSLVRNSLTAAPVNLPGTNLRKLYLQDNHINRVPPNAFSYLRQLYRLDMSNNNLSNLPQGIFDDLDNITQLILRNNPWYCGCKMKWVRDWLQSLPVKVNVRGLMCQAPEKVRGMAIKDLNAELFDCKDSGIVSTIQITTAIPNTVYPAQGQWPAPVTKQPDIKNPKLTKDHQTTGSPSRKTITITVKSVTSDTIHISWKLALPMTALRLSWLKLGHSPAFGSITETIVTGERSEYLVTALEPDSPYKVCMVPMETSNLYLFDETPVCIETETAPLRMYNPTTTLNREQEKEPYKNPNLP

binding: binds
B2: FLRT2 Fc-tagged ectodomain prey (Fc fusion, UniProt O43155 36-541)
chain: CPSVCRCDRNFVYCNERSLTSVPLGIPEGVTVLYLHNNQINNAGFPAELHNVQSVHTVYLYGNQLDEFPMNLPKNVRVLHLQENNIQTISRAALAQLLKLEELHLDDNSISTVGVEDGAFREAISLKLLFLSKNHLSSVPVGLPVDLQELRVDENRIAVISDMAFQNLTSLERLIVDGNLLTNKGIAEGTFSHLTKLKEFSIVRNSLSHPPPDLPGTHLIRLYLQDNQINHIPLTAFSNLRKLERLDISNNQLRMLTQGVFDNLSNLKQLTARNNPWFCDCSIKWVTEWLKYIPSSLNVRGFMCQGPEQVRGMAVRELNMNLLSCPTTTPGLPLFTPAPSTASPTTQPPTLSIPNPSRSYTPPTPTTSKLPTIPDWDGRERVTPPISERIQLSIHFVNDTSIQVSWLSLFTVMAYKLTWVKMGHSLVGGIVQERIVSGEKQHLSLVNLEPRSTYRICLVPLDAFNYRAVEDTICSEATTHASYLNNGSNTASSHEQTTSHSMGSPF
